Some of the results follow.
Legend:
Assay in all cases: log2 fold change, soluble protein after heating vs DMSO (PISA); higher = thermal stabilisation; K562 cells, 10 uM, 30 min; active = over 0.2 and 3.5 SD of the protein, either way, in both replicates (recomputed)
[1] = compound: CN1CCN(CCOc2cc(OC3CCOCC3)c3c(Nc4c(Cl)ccc5c4OCO5)ncnc3c2)CC1 [saracatinib]
How it was run: (§1)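 Quantification of soluble protein used TMTpro 16plex LC-MS/MS, with channel sums equalised. Samples were the supernatant after 21,000xg for 90 min of pooled aliquots from K562 cells (2×10^6 cells/mL) treated with 10 μM compound for 30 min, heated for 3 min over 48°C-58°C, and extracted in PBS with 0.5% NP-40 at 4°C. Values, from duplicates, describe thermal stability against control samples on a log2 fold-change scale.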

Chains of the proteins cited; added tags and fusions are not shown. Lines headed by an entry give the natural chain unless they say otherwise; changes in a name come on top.
UniProt O95801: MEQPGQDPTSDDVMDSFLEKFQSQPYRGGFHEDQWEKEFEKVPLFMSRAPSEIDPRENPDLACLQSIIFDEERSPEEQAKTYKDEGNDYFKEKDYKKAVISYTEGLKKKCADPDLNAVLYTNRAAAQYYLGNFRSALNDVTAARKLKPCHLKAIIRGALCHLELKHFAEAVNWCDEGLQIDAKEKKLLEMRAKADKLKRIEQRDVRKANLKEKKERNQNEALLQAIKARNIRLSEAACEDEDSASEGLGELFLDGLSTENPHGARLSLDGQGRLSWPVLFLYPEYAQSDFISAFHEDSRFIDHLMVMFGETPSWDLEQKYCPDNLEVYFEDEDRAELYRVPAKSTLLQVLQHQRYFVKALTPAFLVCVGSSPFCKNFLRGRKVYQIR
UniProt Q6IPR3: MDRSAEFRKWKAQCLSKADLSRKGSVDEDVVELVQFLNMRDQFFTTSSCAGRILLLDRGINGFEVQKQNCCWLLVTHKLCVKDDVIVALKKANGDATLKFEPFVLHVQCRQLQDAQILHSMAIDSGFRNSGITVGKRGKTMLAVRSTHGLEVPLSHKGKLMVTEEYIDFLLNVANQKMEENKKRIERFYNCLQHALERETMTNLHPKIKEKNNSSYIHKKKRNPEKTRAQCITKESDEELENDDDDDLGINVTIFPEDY
UniProt P04818: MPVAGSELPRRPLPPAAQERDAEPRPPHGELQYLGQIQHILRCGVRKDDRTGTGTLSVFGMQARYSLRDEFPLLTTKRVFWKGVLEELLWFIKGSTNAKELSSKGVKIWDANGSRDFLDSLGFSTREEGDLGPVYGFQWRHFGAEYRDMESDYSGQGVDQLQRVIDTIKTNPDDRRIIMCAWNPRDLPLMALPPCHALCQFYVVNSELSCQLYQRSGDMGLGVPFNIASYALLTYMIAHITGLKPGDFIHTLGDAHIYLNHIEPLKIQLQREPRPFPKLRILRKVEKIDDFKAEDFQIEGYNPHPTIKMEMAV
UniProt P43897: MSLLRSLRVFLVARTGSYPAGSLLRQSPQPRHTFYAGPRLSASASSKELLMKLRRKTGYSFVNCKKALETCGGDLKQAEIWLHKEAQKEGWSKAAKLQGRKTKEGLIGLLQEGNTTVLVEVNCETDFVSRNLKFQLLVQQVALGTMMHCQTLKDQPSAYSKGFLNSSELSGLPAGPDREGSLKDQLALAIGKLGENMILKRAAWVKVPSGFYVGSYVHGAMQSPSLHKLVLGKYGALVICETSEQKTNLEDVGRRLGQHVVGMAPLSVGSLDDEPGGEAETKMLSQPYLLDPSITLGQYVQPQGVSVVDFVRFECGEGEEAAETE
UniProt O43396: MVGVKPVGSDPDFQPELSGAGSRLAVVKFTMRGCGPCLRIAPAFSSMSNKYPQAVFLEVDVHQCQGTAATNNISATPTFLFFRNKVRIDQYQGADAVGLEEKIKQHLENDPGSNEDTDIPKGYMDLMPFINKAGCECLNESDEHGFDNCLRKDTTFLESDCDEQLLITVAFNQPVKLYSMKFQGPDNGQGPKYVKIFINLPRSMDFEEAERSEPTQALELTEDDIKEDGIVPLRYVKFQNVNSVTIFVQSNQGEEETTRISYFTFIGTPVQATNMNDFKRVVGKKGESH
UniProt P68363, whole entry, looked up: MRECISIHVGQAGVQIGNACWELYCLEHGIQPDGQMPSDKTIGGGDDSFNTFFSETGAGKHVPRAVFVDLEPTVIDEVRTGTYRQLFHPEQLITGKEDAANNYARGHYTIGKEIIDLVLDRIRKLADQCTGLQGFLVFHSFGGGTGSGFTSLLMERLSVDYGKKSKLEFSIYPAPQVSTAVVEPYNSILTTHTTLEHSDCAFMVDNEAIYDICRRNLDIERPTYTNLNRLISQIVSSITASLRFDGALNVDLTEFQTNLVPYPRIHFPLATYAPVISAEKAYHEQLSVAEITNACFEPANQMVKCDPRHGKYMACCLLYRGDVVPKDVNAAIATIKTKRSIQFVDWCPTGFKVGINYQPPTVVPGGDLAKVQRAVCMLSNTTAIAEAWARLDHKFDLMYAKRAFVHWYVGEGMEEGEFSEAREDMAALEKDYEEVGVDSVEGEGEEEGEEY
UniProt Q01081: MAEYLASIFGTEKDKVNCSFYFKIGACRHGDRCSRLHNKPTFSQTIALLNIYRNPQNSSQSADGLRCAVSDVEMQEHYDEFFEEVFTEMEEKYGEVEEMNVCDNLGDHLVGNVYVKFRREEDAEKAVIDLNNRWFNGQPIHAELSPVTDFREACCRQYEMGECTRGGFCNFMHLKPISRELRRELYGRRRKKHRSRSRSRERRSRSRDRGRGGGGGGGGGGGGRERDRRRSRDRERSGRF
UniProt Q3B726, whole entry, looked up: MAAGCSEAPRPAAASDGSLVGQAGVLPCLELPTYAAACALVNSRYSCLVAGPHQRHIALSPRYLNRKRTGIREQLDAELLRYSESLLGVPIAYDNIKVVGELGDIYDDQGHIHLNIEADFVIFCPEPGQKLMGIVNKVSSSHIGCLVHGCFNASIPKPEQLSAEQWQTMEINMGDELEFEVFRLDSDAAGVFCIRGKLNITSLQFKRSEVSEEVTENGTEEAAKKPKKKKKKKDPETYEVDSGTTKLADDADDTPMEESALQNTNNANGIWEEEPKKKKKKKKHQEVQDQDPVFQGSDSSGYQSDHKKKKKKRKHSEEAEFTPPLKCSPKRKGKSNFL
UniProt Q5BVD1: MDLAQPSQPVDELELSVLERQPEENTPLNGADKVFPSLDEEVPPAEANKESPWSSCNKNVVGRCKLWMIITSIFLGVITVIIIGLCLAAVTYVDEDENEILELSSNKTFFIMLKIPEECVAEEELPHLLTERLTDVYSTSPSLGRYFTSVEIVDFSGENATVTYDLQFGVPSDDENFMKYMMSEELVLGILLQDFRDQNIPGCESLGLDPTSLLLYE
UniProt P62253: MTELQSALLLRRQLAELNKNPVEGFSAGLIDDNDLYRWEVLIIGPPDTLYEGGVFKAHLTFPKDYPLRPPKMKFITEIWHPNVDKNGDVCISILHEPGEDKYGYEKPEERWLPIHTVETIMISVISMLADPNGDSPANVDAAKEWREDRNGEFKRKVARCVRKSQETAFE
UniProt Q14157: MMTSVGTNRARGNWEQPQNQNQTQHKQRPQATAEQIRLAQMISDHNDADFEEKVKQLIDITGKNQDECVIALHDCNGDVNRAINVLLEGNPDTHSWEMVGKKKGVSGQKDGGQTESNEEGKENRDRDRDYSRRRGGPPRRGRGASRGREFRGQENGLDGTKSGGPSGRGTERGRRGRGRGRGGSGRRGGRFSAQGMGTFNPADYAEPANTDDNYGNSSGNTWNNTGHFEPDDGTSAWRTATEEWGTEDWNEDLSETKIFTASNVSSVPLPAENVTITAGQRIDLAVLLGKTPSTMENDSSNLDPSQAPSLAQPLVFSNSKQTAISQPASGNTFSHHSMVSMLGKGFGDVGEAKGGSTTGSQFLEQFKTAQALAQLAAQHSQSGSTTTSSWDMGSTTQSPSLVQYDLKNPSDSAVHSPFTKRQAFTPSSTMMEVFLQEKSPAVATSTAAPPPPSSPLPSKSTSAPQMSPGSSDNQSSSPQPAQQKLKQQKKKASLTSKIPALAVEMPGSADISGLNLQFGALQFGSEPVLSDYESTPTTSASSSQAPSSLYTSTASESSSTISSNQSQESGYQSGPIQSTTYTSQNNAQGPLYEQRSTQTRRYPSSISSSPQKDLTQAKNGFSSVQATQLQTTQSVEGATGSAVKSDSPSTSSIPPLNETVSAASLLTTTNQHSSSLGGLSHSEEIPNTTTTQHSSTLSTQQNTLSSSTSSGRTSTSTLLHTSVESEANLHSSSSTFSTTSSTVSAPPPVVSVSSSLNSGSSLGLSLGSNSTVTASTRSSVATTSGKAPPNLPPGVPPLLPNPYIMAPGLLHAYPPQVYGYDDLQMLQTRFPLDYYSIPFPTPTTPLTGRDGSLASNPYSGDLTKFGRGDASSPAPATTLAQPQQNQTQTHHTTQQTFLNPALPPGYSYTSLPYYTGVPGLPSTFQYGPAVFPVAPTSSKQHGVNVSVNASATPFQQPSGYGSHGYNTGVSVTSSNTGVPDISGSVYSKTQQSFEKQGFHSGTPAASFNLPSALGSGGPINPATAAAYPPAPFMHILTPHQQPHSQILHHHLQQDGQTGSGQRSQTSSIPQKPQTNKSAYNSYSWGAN
UniProt Q5R3I4: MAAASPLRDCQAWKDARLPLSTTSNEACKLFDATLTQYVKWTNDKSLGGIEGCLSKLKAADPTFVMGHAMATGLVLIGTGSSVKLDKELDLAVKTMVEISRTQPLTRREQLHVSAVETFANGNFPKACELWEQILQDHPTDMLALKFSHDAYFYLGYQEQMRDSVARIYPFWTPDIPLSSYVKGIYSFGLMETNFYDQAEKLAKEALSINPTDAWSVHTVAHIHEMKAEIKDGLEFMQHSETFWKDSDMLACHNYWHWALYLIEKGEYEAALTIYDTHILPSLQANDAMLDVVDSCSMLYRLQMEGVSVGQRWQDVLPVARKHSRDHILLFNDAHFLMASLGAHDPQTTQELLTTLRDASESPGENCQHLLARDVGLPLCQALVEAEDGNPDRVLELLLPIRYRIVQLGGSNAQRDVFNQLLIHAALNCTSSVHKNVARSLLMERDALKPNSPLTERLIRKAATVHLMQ
UniProt Q96CW5, whole entry, looked up: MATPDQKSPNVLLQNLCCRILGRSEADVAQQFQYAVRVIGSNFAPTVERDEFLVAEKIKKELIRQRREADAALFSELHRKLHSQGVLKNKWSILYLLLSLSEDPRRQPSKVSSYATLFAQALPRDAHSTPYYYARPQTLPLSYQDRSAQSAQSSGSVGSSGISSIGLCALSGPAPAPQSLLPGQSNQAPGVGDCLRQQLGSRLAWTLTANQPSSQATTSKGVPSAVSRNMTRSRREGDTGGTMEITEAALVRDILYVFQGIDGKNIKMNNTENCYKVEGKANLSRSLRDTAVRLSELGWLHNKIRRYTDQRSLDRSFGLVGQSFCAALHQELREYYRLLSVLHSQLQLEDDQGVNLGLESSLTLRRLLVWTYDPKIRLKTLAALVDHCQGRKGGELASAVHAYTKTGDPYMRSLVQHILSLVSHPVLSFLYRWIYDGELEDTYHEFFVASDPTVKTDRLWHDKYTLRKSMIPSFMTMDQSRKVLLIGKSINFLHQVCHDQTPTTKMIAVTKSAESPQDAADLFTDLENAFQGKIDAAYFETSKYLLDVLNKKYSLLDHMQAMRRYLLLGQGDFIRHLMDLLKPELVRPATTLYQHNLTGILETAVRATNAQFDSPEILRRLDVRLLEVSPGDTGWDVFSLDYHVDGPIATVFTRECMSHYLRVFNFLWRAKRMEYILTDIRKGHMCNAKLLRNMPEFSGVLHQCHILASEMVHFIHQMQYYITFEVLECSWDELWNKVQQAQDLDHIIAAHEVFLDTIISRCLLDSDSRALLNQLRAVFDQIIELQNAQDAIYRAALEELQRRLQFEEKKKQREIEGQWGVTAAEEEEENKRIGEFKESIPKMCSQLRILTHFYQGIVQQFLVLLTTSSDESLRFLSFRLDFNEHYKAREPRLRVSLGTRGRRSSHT
UniProt Q9H892: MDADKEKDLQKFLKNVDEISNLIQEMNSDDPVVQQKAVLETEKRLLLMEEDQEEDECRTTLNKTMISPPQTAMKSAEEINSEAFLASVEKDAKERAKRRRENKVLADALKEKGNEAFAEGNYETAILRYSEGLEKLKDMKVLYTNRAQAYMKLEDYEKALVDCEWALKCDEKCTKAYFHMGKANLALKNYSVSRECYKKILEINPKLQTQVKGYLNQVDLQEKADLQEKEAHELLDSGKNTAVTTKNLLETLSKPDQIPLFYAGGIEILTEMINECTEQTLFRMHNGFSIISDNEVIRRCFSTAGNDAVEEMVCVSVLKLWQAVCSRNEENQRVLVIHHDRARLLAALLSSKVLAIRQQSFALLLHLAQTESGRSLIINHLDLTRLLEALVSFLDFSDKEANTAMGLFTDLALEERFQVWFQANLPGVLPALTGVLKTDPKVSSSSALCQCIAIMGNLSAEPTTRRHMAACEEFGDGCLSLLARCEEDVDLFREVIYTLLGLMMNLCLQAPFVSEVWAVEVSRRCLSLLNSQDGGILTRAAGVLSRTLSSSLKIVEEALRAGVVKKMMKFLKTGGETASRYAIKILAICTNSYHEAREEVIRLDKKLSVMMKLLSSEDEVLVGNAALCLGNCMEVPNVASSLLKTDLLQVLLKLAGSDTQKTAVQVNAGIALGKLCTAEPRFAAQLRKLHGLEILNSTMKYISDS
UniProt Q9Y385: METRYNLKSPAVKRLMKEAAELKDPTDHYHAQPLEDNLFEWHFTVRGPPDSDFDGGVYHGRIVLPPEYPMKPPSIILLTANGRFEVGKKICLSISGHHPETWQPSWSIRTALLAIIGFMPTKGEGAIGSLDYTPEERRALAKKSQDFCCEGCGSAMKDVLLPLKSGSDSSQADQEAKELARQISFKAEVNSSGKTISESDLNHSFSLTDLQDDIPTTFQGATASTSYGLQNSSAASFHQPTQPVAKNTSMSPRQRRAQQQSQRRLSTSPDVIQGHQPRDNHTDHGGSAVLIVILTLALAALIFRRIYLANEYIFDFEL

[2] = compound: CN1CCN(c2nc(C3=C(c4c[nH]c5ccccc45)C(=O)NC3=O)c3ccccc3n2)CC1 [sotrastaurin]
How it was run: as §1

[3] = compound: CN1CCc2c(c3ccccc3n2Cc2ccc(C(=O)NO)cc2)C1 [Tubastatin A]
How it was run: as §1

[4] = compound: CNC(=O)C1=CC=CC=C1NC2=NC(=NC=C2Cl)NC3=C(C=C(C=C3)N4CCOCC4)OC
How it was run: as §1

[5] = compound: CNC(=O)c1ccc(Nc2ncc(C(F)(F)F)c(NCc3nccnc3N(C)S(C)(=O)=O)n2)cc1 [defactinib]
How it was run: as §1

[6] = compound: CNCc1ccc(-c2[nH]c3cc(F)cc4c3c2CCNC4=O)cc1 [rucaparib]
How it was run: as §1

[7] = compound: CNc1nc(-c2ccc3c(N)n[nH]c3c2)cc(N2C[C@@H](C(=O)NC3CCCCC3)CC[C@H]2C)n1
How it was run: as §1

[8] = compound: COC(=O)N[C@@H](C)CNc1nccc(-c2cn(C(C)C)nc2-c2cc(Cl)cc(NS(C)(=O)=O)c2F)n1 [encorafenib]
How it was run: as §1

[9] = compound: COC(=O)[C@H](CCSC)NC(=O)C1=C(C=C(C=C1)NC[C@H](CS)N)C2=CC=CC=C2
How it was run: as §1

[10] = compound: CN1CC[C@H](c2c(O)cc(O)c3c(=O)cc(-c4ccccc4Cl)oc23)[C@H](O)C1 [alvocidib]
How it was run: as §1

Measured: log2 fold change

TTC4 (UniProt O95801)
inactive: [1] -0.09 | [2] -0.11 | [3] 0.055 | [4] 0.078 | [5] -0.169 | [6] 0.04 | [7] 0.051 | [8] 0.049 | [9] -0.055

TUT4 (UniProt Q5TAX3)
inactive: [1] -0.089 | [2] 0.003 | [3] 0.073 | [4] -0.075 | [5] -0.095 | [6] -0.001 | [7] -0.008 | [8] -0.144 | [9] 0.082

TYW3 (UniProt Q6IPR3)
inactive: [1] 0.054 | [2] 0.036 | [10] 0.054 | [3] -0.027 | [4] -0.044 | [5] 0.057 | [6] 0.114 | [7] -0.014 | [8] 0.012 | [9] -0.026

TYMS (UniProt P04818)
inactive: [1] 0.015 | [2] 0 | [10] -0.038 | [3] 0.079 | [4] -0.014 | [5] -0.13 | [6] 0.087 | [7] -0.031 | [8] -0.005 | [9] -0.134

TUBGCP4 (UniProt Q9UGJ1)
inactive: [1] -0.115 | [2] -0.346 | [10] 0.034 | [3] 0.184 | [4] -0.047 | [6] 0.562 | [7] -0.014 | [8] 0.268

TSFM (UniProt P43897)
inactive: [1] 0.057 | [2] -0.157 | [3] 0.063 | [4] 0.021 | [5] -0.166 | [6] -0.001 | [7] -0.073 | [8] 0.167 | [9] -0.082

TTI1 (UniProt O43156)
inactive: [1] -0.065 | [2] -0.128 | [3] -0.007 | [4] -0.058 | [5] -0.046 | [6] 0.237 | [7] 0.053 | [8] 0.068 | [9] 0.004

TXNL1 (UniProt O43396)
inactive: [1] -0.008 | [2] -0.068 | [3] 0.215 | [4] 0.034 | [5] -0.085 | [6] 0.019 | [7] 0.024 | [8] 0.062 | [9] -0.045

TUBA1B (UniProt P68363)
inactive: [1] 0.011 | [2] 0.043 | [10] 0.016 | [3] -0.048 | [4] -0.07 | [5] -0.005 | [6] -0.07 | [7] -0.003 | [8] 0.013 | [9] 0.024

UBA1 (UniProt P22314)
inactive: [1] -0.048 | [2] -0.17 | [3] -0.052 | [4] 0.015 | [5] -0.058 | [6] -0.019 | [7] 0.055 | [8] 0.149 | [9] -0.057

TTI2 (UniProt Q6NXR4)
inactive: [1] -0.028 | [2] -0.187 | [3] -0.02 | [4] 0.051 | [5] -0.073 | [6] 0.119 | [7] -0.036 | [8] 0.037 | [9] -0.038

U2AF1 isoform 2 (UniProt Q01081)
inactive: [1] -0.027 | [2] -0.062 | [3] 0.042 | [4] -0.104 | [5] -0.086 | [6] 0.045 | [7] -0.009 | [8] 0.041 | [9] -0.075

2 entries picked at random from the list so far, as already listed:
TUBA1B (UniProt P68363)
inactive: [1] 0.011 | [2] 0.043 | [10] 0.016 | [3] -0.048 | [4] -0.07 | [5] -0.005 | [6] -0.07 | [7] -0.003 | [8] 0.013 | [9] 0.024

TTI2 (UniProt Q6NXR4)
inactive: [1] -0.028 | [2] -0.187 | [3] -0.02 | [4] 0.051 | [5] -0.073 | [6] 0.119 | [7] -0.036 | [8] 0.037 | [9] -0.038

(listing goes on)

UBC (UniProt P0CG48)
inactive: [1] -0.106 | [2] 0.042 | [3] 0.252 | [4] 0.002 | [5] 0.031 | [6] 0.053 | [7] 0.017 | [8] -0.124 | [9] 0.005

UBAP1 isoform 4 (UniProt Q9NZ09)
inactive: [1] -0.023 | [2] -0.032 | [3] 0.007 | [4] -0.028 | [5] -0.08 | [6] 0.089 | [7] -0.053 | [8] -0.05 | [9] 0.006

TWISTNB (UniProt Q3B726)
inactive: [1] -0.08 | [2] -0.134 | [10] 0.006 | [3] 0.182 | [4] -0.045 | [5] -0.105 | [7] -0.107 | [9] 0.001

TST (UniProt Q16762)
inactive: [1] -0.02 | [2] 0.096 | [10] -0.091 | [4] 0.029 | [5] -0.16 | [6] 0.33 | [7] 0.002 | [8] -0.002 | [9] -0.051

TTMP isoform 3 (UniProt Q5BVD1)
inactive: [1] -0.118 | [2] 0.027 | [10] -0.002 | [3] 0.334 | [4] -0.134 | [7] 0.008

UBE2G1 (UniProt P62253)
inactive: [1] 0.002 | [2] 0.002 | [10] -0.094 | [3] -0.074 | [4] 0.029 | [5] -0.045 | [6] -0.037 | [7] -0.01 | [8] 0.023 | [9] 0.061

UBAP2L isoform 5 (UniProt Q14157)
inactive: [1] 0.017 | [2] 0.013 | [3] -0.006 | [4] -0.096 | [5] 0.009 | [6] 0.018 | [7] -0.006 | [8] -0.018 | [9] 0.015

TTC38 (UniProt Q5R3I4)
inactive: [1] -0.045 | [2] 0.086 | [4] -0.062 | [5] -0.262 | [6] 0.435 | [7] 0.293 | [8] -0.02 | [9] -0.011
active: [3] 0.578

TYW1 (UniProt Q9NV66)
inactive: [1] 0.089 | [2] -0.059 | [3] -0.033 | [4] 0.031 | [5] -0.055 | [6] 0.052 | [7] -0.061 | [8] 0.028 | [9] -0.059

UBE2J2 isoform 3 (UniProt Q8N2K1)
inactive: [1] 0.07 | [2] 0.044 | [3] 0.091 | [4] -0.114 | [5] -0.061 | [6] 0.081 | [7] 0.055 | [8] 0.014 | [9] -0.053

TUBGCP3 (UniProt Q96CW5)
inactive: [1] -0.13 | [2] -0.072 | [10] 0.04 | [3] 0.109 | [4] -0.192 | [5] 0.006 | [7] 0.097 | [9] -0.058

TXNL4B (UniProt Q9NX01)
inactive: [1] -0.053 | [2] 0.189 | [3] 0.03 | [4] 0.02 | [5] -0.093 | [6] 0.022 | [7] -0.062 | [8] -0.021 | [9] -0.199

UBE2K (UniProt D6RDM7)
inactive: [1] -0.14 | [2] 0.032 | [10] 0.034 | [3] -0.064 | [5] 0.098 | [6] -0.19 | [7] -0.196 | [8] -0.025 | [9] 0.083

UBAP2L isoform 1 (UniProt Q14157)
inactive: [1] -0.001 | [2] 0.063 | [3] -0.016 | [4] 0.038 | [5] -0.02 | [6] -0.017 | [7] -0.073 | [8] -0.014 | [9] -0.015

TTC12 isoform 2 (UniProt Q9H892)
inactive: [1] -0.354 | [2] 0.14 | [10] 0.206 | [3] -0.03 | [4] 0.006 | [6] 0.13 | [7] 0.013 | [8] 0.102

UBA6
inactive: [1] -0.006 | [2] -0.125 | [3] -0.047 | [4] 0.041 | [5] -0.089 | [6] 0.024 | [7] 0.011 | [8] 0.049 | [9] -0.032

TSPAN31 (UniProt Q12999)
inactive: [1] 0.071 | [2] 0.114 | [10] 0.048 | [3] -0.146 | [4] -0.171 | [6] -0.082 | [7] 0 | [8] -0.081

UBE2J1 (UniProt Q9Y385)
inactive: [1] 0.019 | [2] -0.016 | [3] 0.26 | [4] -0.046 | [5] -0.133 | [6] 0.048 | [7] 0.204 | [8] 0.001 | [9] 0.035

TUBAL3 (UniProt A6NHL2)
active: [6] -0.51
inactive: [1] -0.074 | [2] -0.054 | [3] -0.003 | [4] -0.125 | [5] -0.069 | [7] 0.067 | [8] 0.187 | [9] -0.057

U2AF2 (UniProt P26368)
inactive: [1] 0.022 | [2] 0.056 | [3] -0.007 | [4] -0.181 | [5] -0.035 | [6] 0.163 | [7] -0.037 | [8] -0.037 | [9] 0.001

— the supplement of paper PMC10849652
